Test results reported in the supplement of paper PMC12067093, “Discovery and optimisation of a covalent ligand for TRIM25 and its application to targeted protein ubiquitination” (Chemical Science, 2025).
The other results are listed elsewhere or left out.

By UniProt entry, the sequences of proteins in these tests, tags left out. Where a name states a change or a piece, a line headed by the entry shows the natural chain unless it says otherwise.
UniProt Q9P258, whole entry, looked up: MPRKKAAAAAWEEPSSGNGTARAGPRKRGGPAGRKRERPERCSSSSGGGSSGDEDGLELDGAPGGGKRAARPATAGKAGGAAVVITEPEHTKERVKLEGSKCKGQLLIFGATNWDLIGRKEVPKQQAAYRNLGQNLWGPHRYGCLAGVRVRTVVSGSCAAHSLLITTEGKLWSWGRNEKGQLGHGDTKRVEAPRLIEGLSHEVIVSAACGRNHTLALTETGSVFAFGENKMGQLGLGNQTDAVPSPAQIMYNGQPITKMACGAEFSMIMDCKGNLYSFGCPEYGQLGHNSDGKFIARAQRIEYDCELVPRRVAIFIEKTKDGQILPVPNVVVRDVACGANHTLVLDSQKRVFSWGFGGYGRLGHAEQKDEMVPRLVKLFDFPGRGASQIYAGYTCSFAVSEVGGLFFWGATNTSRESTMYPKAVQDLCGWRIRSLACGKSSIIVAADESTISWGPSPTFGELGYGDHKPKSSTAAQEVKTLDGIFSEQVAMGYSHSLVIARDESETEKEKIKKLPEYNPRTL
UniProt Q06330: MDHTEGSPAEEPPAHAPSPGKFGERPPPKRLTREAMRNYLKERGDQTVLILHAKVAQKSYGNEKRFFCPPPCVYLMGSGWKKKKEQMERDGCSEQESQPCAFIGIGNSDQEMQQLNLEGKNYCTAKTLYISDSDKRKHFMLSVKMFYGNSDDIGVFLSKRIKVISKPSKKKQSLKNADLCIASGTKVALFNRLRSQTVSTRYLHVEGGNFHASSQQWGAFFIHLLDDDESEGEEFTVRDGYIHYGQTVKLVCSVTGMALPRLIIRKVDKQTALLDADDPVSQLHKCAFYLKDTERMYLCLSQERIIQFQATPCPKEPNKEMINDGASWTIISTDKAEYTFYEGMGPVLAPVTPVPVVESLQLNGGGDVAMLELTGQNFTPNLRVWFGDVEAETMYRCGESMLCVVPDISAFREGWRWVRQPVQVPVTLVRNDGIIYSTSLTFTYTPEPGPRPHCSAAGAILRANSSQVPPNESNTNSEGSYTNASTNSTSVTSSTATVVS
UniProt P46060: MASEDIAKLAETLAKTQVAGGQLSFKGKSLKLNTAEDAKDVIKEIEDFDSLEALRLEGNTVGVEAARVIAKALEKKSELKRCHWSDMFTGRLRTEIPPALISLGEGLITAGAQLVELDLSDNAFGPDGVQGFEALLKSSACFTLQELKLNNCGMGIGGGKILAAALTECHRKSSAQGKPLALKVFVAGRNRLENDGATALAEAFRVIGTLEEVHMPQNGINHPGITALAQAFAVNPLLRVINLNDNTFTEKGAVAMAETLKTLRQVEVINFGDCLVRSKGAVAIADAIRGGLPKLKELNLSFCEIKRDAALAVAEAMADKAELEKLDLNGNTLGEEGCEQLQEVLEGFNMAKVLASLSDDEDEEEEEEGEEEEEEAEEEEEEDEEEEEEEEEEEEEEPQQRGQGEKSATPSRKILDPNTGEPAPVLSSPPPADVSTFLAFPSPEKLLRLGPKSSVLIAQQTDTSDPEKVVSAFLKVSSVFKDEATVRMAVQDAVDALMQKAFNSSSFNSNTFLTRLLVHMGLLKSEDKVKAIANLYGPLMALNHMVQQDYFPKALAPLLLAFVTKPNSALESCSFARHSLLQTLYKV
UniProt Q9H6Z4: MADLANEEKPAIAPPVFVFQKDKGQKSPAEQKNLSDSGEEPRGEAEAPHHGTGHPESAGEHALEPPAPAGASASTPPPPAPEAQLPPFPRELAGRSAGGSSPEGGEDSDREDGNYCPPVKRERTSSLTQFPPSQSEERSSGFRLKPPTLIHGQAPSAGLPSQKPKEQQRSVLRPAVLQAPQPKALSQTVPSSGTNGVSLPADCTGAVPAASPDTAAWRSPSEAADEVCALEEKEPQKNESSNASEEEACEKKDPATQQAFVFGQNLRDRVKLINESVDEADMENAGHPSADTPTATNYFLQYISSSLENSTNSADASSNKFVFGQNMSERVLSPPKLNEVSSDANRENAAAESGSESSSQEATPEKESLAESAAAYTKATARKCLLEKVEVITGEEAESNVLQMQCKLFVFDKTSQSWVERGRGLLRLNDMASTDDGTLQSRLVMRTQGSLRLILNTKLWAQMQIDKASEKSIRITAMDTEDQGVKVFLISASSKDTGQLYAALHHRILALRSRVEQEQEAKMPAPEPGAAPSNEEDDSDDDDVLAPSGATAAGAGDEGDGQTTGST
UniProt Q9NW64: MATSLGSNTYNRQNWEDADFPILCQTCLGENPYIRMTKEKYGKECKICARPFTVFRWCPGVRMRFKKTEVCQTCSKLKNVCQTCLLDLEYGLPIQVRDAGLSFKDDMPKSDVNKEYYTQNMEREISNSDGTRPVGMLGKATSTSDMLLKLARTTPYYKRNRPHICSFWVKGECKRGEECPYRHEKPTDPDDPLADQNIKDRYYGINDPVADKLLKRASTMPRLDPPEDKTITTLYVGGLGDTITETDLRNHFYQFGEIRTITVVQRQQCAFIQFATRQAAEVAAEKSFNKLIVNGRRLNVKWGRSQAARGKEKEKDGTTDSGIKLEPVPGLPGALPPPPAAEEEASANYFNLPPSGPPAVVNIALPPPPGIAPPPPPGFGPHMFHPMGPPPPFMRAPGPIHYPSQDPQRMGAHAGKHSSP
UniProt Q9UJF2: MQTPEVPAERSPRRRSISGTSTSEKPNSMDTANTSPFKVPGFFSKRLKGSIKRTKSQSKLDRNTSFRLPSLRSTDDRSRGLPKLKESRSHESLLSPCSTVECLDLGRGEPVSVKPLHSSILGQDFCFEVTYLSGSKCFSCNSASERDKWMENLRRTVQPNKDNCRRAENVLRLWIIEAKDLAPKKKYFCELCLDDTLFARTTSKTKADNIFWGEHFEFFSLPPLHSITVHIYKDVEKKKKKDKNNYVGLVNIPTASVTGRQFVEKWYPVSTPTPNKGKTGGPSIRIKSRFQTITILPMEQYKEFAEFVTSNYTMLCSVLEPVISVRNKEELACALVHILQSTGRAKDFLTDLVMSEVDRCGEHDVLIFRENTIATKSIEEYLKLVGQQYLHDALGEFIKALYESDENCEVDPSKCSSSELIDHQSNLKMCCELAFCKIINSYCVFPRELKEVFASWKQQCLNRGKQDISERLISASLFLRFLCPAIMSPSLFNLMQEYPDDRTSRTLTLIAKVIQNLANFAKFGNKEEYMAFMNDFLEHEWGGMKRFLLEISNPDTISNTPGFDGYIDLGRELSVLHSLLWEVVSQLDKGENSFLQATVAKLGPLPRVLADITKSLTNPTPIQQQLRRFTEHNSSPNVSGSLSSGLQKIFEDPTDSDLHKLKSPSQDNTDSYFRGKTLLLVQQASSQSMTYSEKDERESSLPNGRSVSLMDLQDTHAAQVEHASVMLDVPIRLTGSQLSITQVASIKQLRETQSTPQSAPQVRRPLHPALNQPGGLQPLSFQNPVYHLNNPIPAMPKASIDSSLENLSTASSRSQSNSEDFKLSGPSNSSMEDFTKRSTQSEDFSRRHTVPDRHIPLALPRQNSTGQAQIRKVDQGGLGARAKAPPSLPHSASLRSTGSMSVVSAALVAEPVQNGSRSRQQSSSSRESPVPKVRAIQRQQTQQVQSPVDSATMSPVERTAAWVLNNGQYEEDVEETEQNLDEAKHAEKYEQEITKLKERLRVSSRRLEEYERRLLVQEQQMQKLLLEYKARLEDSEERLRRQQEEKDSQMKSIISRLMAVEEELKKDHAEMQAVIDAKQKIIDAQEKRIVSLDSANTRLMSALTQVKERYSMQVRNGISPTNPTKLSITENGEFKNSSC
UniProt Q86U06: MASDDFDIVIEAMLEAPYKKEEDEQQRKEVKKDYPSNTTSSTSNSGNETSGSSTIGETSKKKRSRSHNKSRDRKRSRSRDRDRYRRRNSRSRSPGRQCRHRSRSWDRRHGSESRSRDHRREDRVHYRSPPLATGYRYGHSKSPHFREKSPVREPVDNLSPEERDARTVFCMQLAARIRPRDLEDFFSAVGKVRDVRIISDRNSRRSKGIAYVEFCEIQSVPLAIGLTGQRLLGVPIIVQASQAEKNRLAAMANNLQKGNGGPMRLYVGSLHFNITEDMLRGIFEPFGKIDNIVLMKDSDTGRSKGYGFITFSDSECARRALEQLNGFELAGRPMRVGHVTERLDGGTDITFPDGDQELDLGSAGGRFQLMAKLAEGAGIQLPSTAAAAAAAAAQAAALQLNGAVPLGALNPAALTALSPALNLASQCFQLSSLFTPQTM
UniProt Q96PM5: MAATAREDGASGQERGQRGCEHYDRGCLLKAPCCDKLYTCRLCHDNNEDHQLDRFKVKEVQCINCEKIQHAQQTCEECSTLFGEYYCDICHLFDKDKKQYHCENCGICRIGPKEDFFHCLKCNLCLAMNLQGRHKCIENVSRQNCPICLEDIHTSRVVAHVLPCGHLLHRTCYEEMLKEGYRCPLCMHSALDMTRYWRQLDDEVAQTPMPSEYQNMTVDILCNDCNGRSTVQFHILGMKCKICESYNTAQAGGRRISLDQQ
UniProt P52306: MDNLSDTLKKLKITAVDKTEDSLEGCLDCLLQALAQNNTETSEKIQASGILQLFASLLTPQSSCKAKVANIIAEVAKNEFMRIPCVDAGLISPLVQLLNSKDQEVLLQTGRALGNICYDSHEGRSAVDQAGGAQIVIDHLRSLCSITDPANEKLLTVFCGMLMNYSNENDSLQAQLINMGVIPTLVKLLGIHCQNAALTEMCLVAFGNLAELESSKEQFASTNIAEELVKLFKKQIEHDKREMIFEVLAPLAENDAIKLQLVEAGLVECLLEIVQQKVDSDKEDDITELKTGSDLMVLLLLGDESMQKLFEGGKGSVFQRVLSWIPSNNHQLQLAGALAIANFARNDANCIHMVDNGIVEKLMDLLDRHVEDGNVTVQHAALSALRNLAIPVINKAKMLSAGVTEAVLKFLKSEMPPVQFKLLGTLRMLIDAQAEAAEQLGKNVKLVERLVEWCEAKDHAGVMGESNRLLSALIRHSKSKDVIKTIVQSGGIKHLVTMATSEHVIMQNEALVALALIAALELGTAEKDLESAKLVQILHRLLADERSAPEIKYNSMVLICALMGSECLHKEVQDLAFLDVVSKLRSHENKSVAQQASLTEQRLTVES
UniProt Q684P5: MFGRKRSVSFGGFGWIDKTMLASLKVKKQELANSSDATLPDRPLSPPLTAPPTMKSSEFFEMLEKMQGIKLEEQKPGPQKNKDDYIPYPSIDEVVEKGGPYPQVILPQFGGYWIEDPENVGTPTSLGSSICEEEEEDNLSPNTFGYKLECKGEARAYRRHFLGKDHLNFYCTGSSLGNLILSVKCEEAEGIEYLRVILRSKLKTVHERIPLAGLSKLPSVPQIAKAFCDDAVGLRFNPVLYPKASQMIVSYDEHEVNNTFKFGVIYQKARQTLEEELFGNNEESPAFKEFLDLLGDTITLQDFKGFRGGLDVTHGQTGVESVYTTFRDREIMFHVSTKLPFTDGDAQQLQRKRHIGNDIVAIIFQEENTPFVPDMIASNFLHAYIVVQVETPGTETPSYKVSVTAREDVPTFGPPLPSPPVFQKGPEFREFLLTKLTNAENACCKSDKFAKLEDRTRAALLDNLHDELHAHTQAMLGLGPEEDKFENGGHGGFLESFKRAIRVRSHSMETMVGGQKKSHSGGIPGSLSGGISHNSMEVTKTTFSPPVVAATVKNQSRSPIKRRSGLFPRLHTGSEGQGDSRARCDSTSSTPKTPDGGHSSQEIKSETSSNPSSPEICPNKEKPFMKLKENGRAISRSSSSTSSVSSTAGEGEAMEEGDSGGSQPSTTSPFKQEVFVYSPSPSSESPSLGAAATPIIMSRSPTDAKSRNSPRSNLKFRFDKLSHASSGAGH
UniProt Q96S59, whole entry, looked up: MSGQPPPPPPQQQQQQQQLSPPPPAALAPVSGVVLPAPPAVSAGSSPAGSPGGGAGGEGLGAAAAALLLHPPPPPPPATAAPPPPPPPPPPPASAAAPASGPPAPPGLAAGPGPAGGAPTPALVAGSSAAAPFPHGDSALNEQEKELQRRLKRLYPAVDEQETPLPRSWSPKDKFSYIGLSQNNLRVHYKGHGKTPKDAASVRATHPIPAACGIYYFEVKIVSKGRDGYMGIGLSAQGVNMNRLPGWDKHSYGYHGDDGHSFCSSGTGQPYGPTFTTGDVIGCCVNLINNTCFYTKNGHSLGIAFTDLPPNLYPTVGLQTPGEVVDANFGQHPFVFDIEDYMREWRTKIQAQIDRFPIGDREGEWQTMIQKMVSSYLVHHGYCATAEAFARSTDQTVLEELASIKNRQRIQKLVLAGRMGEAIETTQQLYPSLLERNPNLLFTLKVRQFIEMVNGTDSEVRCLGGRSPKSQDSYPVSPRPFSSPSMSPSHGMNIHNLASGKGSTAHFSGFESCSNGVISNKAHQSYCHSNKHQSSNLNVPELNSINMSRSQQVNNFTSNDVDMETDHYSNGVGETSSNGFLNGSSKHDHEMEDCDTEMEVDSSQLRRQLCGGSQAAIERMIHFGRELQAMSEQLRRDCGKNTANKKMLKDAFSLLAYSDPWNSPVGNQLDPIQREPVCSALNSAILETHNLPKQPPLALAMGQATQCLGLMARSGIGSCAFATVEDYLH

Compound: Cc1cc(ccc1-c1ccccc1)C(=O)N1CCCN(CC1)C(=O)CCl [compound 10]
Assay: probe-labelled cysteine peptide fold change vs DMSO (competition) (log2 fold change); higher = less target engagement (more negative = stronger competition)
Details: THP-1, incubation time: 4 h
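Note: competitive profiling in live THP-1 cells: cysteine peptides tagged with an iodoacetamide desthiobiotin (IA-DTB) probe, intensity after compound treatment relative to DMSO-treated cells.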

Target	probe-labelled cysteine peptide fold change (10 µM)	probe-labelled cysteine peptide fold change (50 µM)
RANBP6_O60518_188_LLDQCIQDQEHPAIR (UniProt O60518)	-0.0322	-0.269
RCC2_Q9P258_280_GNLYSFGCPEYGQLGHNSDGK (UniProt Q9P258)	0.188	-0.13
RASA1_P20936_261_FSSLSDLIGYYSHVSCLLK (UniProt P20936)	0.273	0.101
RANBP10_Q6VN20_501_RQLCGGNQAATER (UniProt Q6VN20)	-0.0263	-0.358
RAI1_Q7Z5J4_1516_MEELGLASQPPEGRPCQPQTR (UniProt Q7Z5J4)	-0.171	-0.319
RBPJ_Q06330_252_LVCSVTGMALPR (UniProt Q06330)	0.108	-0.00644
RANBP2_P49792_1612_EGQWDCSVCLVR (UniProt P49792)	0.0273	-0.317
RANGAP1_P46060_303_ELNLSFCEIKR (UniProt P46060)	-0.184	-0.202
RANBP3_Q9H6Z4_249_NESSNASEEEACEK (UniProt Q9H6Z4)	-0.298	-0.545
RASSF2_P50749_90_IRPPPSSSSWHSGCNLGAQGTTLKPLTVPK (UniProt P50749)	-0.112	-0.92
RANBP10_Q6VN20_100_ATHPIPAACGIYYFEVK (UniProt Q6VN20)	-0.173	0.213
RC3H1_Q5TC82_143_KLVTLVHCQLVEEEGR (UniProt Q5TC82)	0.0192	-0.0389
RBM22_Q9NW64_165_NRPHICSFWVK (UniProt Q9NW64)	-0.319	-0.539
RARS_P54136_150_HLPDNECIEK (UniProt P54136)	0.011	0.000165
RASAL2_Q9UJF2_360_CGEHDVLIFR (UniProt Q9UJF2)	0.00381	-0.0441
RASAL2_Q9UJF2_189_YFCELCLDDTLFAR (UniProt Q9UJF2)	0.00959	-0.237
RBM15B_Q8NDT2_732_NSCFPTSMHILEGDQGVISSLLK (UniProt Q8NDT2)	0.127	0.418
RANBP2_P49792_707_AEDIENDALSPEEQEECK (UniProt P49792)	0.0365	0.0945
RBM23_Q86U06_316_GYGFITFSDSECAR (UniProt Q86U06)	0.166	0.518
RASSF4_Q9H2L5_33_TYNCYHEGK (UniProt Q9H2L5)	0.0346	-0.039
RBM22_Q9NW64_74_TEVCQTCSK (UniProt Q9NW64)	0.119	-0.148
RANBP2_P49792_1549_KEGQWDCSSCLVR (UniProt P49792)	0.101	-0.316
RANBP2_P49792_1549_EGQWDCSSCLVR (UniProt P49792)	0.0665	-0.279
RBM28_Q9NW13_392_CLLAASPENEAGGLK (UniProt Q9NW13)	0.0774	0.197
RBCK1_Q9BYM8_411_AIHEQMNCK (UniProt Q9BYM8)	-0.0774	-0.255
RDH11_Q8TC12_133_HLHVLINNAGVMMCPYSK (UniProt Q8TC12)	-0.119	-0.396

Target	probe-labelled cysteine peptide fold change (10 µM)	probe-labelled cysteine peptide fold change (50 µM)
RDH14_Q9HBH5_148_LDVLINNAGIFQCPYMK (UniProt Q9HBH5)	0.0587	0.171
RECQL4_O94761_389_KKGECFGGGGATVTTK (UniProt O94761)	0.105	0.274
RBL1_P28749_1047_VCQENDDVLLK (UniProt P28749)	-0.143	-0.0793
RCC2_Q9P258_337_DVACGANHTLVLDSQK (UniProt Q9P258)	-0.114	0.297
RALBP1_Q15311_411_RQEFLLNCLHR (UniProt Q15311)	0.0789	0.0545
RB1CC1_Q8TDY2_282_ESCQSTVHQQDETTIDTK (UniProt Q8TDY2)	-0.335	-0.693
RASGRP2_Q7LDG7_512_MGFVHNFQESNSLRPVACR (UniProt Q7LDG7)	-0.0754	-0.351
RANBP2_P49792_707_KAEDIENDALSPEEQEECK (UniProt P49792)	0.21	0.109
RCHY1_Q96PM5_119_EDFFHCLK (UniProt Q96PM5)	0.0681	-0.253
RB1_P06400_278_IIEVLCK (UniProt P06400)	0.188	0.119
RAPGEF1_Q13905_817_CATSSQPLAAR (UniProt Q13905)	-0.1	-0.391
RASAL3_Q86YV0_546_CPASELPEHQAR (UniProt Q86YV0)	-0.235	-0.35
RBM4_Q9BWF3_89_LHVGNISPTCTNK (UniProt Q9BWF3)	-0.0262	-0.0246
RBM25_P49756_132_LQAFGFCEYK (UniProt P49756)	0.168	0.592
RARS_P54136_369_IVFVPGCSIPLTIVK (UniProt P54136)	0.133	0.0185
RBM19_Q9Y4C8_77_ITVEFCK (UniProt Q9Y4C8)	0.0194	0.0758
RARS_P54136_115_FGDYQCNSAMGISQMLK (UniProt P54136)	-0.0887	-0.216
RBM34_P42696_196_TVFVGNLPVTCNKK (UniProt P42696)	0.0417	-0.242
RCC2_Q9P258_158_TVVSGSCAAHSLLITTEGK (UniProt Q9P258)	0.0546	0.205
RBKS_Q9H477_151_VMVCQLEITPATSLEALTMAR (UniProt Q9H477)	0.198	-0.0743
RC3H1_Q5TC82_143_LVTLVHCQLVEEEGR (UniProt Q5TC82)	0.131	0.0901
RANBP3_Q9H6Z4_228_SPSEAADEVCALEEK (UniProt Q9H6Z4)	-0.187	0.0811
RBM12B_Q8IXT5_204_FASCVDASGGLK (UniProt Q8IXT5)	0.0426	-0.362
RBPJ_Q06330_313_IIQFQATPCPK (UniProt Q06330)	-0.0745	-0.176
RASA3_Q14644_144_LSEVITDTGVVCHK (UniProt Q14644)	0.0862	-0.21
RBM23_Q86U06_215_GIAYVEFCEIQSVPLAIGLTGQR (UniProt Q86U06)	-0.337	0.115

Target	probe-labelled cysteine peptide fold change (10 µM)	probe-labelled cysteine peptide fold change (50 µM)
RAP1A_P62834_118_DTEDVPMILVGNKCDLEDERVVGK (UniProt P62834)	-0.426	-0.88
RBM22_Q9NW64_71_KTEVCQTCSK (UniProt Q9NW64)	-0.0894	-0.279
RANBP2_P49792_581_HGLQPALLVHWAECLQK (UniProt P49792)	0.132	0.224
RCHY1_Q96PM5_105_QYHCENCGICR (UniProt Q96PM5)	0.0335	0.0257
RCL1_Q9Y2P8_13_ATQAHSLSYAGCNFLR (UniProt Q9Y2P8)	0.122	0.434
RBBP5_Q15291_233_EILTCGR (UniProt Q15291)	-0.0732	0.0901
RANBP3_Q9H6Z4_406_VEVITGEEAESNVLQMQCK (UniProt Q9H6Z4)	0.313	0.146
RCC2_Q9P258_305_AQRIEYDCELVPR (UniProt Q9P258)	-0.00203	-0.629
RASGRP4_Q8TDF6_14_SHQECTGK (UniProt Q8TDF6)	-0.159	-0.508
RAP1GDS1_P52306_454_LVEWCEAK (UniProt P52306)	0.159	0.0381
RASA1_P20936_616_HFTNPYCNIYLNSVQVAK (UniProt P20936)	0.015	0.021
RAP1GAP2_Q684P5_171_DHLNFYCTGSSLGNLILSVK (UniProt Q684P5)	-0.0643	0.0475
RAP1GDS1_P52306_560_YNSMVLICALMGSECLHK (UniProt P52306)	0.0815	-0.249
RBX1_P62877_94_QVCPLDNREWEFQK (UniProt P62877)	-0.296	-0.446
RAP1B_P61224_51_QVEVDAQQCMLEILDTAGTEQFTAMR (UniProt P61224)	0.124	0.124
RASGRP2_Q7LDG7_76_TCHLVR (UniProt Q7LDG7)	-0.118	-0.125
RANBP9_Q96S59_719_SGIGSCAFATVEDYLH (UniProt Q96S59)	-0.139	-0.121
RANGAP1_P46060_152_LNNCGMGIGGGK (UniProt P46060)	-0.173	-0.158
RBM25_P49756_83_AKENDENCGPTTTVFVGNISEK (UniProt P49756)	-0.0629	-0.55
RANBP2_P49792_1485_EGQWDCSACLVQNEGSSTK (UniProt P49792)	0.0715	0.0194
RANBP9_Q96S59_707_QPPLALAMGQATQCLGLMAR (UniProt Q96S59)	0.193	0.216
RAPGEF6_Q8TEU7_522_LLNIACAAK (UniProt Q8TEU7)	-0.0173	0.0201
RANBP9_Q96S59_594_HDHEMEDCDTEMEVDSSQLR (UniProt Q96S59)	-0.248	-0.345
RAP1GAP2_Q684P5_185_CEEAEGIEYLR (UniProt Q684P5)	-0.00551	0.439

Rewritten with bars between the fields: part of the list above.
Target | probe-labelled cysteine peptide fold change (10 µM) | probe-labelled cysteine peptide fold change (50 µM)
RC3H1_Q5TC82_143_KLVTLVHCQLVEEEGR (UniProt Q5TC82) | 0.0192 | -0.0389
RBM15B_Q8NDT2_732_NSCFPTSMHILEGDQGVISSLLK (UniProt Q8NDT2) | 0.127 | 0.418
RANBP2_P49792_707_AEDIENDALSPEEQEECK (UniProt P49792) | 0.0365 | 0.0945
RBM23_Q86U06_316_GYGFITFSDSECAR (UniProt Q86U06) | 0.166 | 0.518
RDH14_Q9HBH5_148_LDVLINNAGIFQCPYMK (UniProt Q9HBH5) | 0.0587 | 0.171
RCC2_Q9P258_337_DVACGANHTLVLDSQK (UniProt Q9P258) | -0.114 | 0.297
RALBP1_Q15311_411_RQEFLLNCLHR (UniProt Q15311) | 0.0789 | 0.0545
RAPGEF1_Q13905_817_CATSSQPLAAR (UniProt Q13905) | -0.1 | -0.391
RCC2_Q9P258_158_TVVSGSCAAHSLLITTEGK (UniProt Q9P258) | 0.0546 | 0.205
RCL1_Q9Y2P8_13_ATQAHSLSYAGCNFLR (UniProt Q9Y2P8) | 0.122 | 0.434
RCC2_Q9P258_305_AQRIEYDCELVPR (UniProt Q9P258) | -0.00203 | -0.629
RASA1_P20936_616_HFTNPYCNIYLNSVQVAK (UniProt P20936) | 0.015 | 0.021
RAP1GAP2_Q684P5_171_DHLNFYCTGSSLGNLILSVK (UniProt Q684P5) | -0.0643 | 0.0475
RAP1GAP2_Q684P5_185_CEEAEGIEYLR (UniProt Q684P5) | -0.00551 | 0.439
